Laboratory results from the supplement of paper PMC9233669.
Variants at the floor of the assay are shown more often than the library holds them.

Experiments:
biotinyl-Trp-oxazolone = assay: self-aminoacylation, catalytic enhancement (BWO) (fold over background); higher = more active; k-Seq, kA / k0A0; sequences stand for … in GGGAAUGGAUCCACAUCUACGAAUUC…UUCACUGCAGACUUGACGAAGCUG
Summary of the method: (§1)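 Mutagenized RNA pools (0.43 μM; 21-nt variable region) were treated with 2–1250 μM of each biotinyl-aminoacyl-oxazolone. Conditions were 50 μL HEPES/NaCl/KCl/MgCl2/CaCl2 buffer, 5% acetonitrile, pH 6.9–7.0, room temperature, 90 minutes. Catalytic enhancement, the median kA relative to the uncatalyzed rate, was derived from streptavidin capture, qPCR and Illumina sequencing.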

biotinyl-Leu-oxazolone = assay: self-aminoacylation, catalytic enhancement (BLO) (fold over background); higher = more active; k-Seq, kA / k0A0; sequences stand for … in GGGAAUGGAUCCACAUCUACGAAUUC…UUCACUGCAGACUUGACGAAGCUG
Summary of the method: as §1

biotinyl-Val-oxazolone = assay: self-aminoacylation, catalytic enhancement (BVO) (fold over background); higher = more active; k-Seq, kA / k0A0; sequences stand for … in GGGAAUGGAUCCACAUCUACGAAUUC…UUCACUGCAGACUUGACGAAGCUG
Summary of the method: as §1

biotinyl-Ile-oxazolone = assay: self-aminoacylation, catalytic enhancement (BIO) (fold over background); higher = more active; k-Seq, kA / k0A0; sequences stand for … in GGGAAUGGAUCCACAUCUACGAAUUC…UUCACUGCAGACUUGACGAAGCUG
Summary of the method: as §1

biotinyl-Met-oxazolone = assay: self-aminoacylation, catalytic enhancement (BMO) (fold over background); higher = more active; k-Seq, kA / k0A0; sequences stand for … in GGGAAUGGAUCCACAUCUACGAAUUC…UUCACUGCAGACUUGACGAAGCUG
Summary of the method: as §1

biotinyl-Phe-oxazolone = assay: self-aminoacylation, catalytic enhancement (BFO) (fold over background); higher = more active; k-Seq, kA / k0A0; sequences stand for … in GGGAAUGGAUCCACAUCUACGAAUUC…UUCACUGCAGACUUGACGAAGCUG
Summary of the method: as §1

Row | Sequence | self-aminoacylation (biotinyl-Trp-oxazolone) | self-aminoacylation (biotinyl-Leu-oxazolone) | self-aminoacylation (biotinyl-Val-oxazolone) | self-aminoacylation (biotinyl-Ile-oxazolone) | self-aminoacylation (biotinyl-Met-oxazolone) | self-aminoacylation (biotinyl-Phe-oxazolone)
1 | CCACACUUCAAGAAACCGGUC [Fam1B.1 aminoacylation ribozyme variant] | 0.931 | 1.17 | 0.824 | 0.998 | 0.798 | 0.875
2 | CCACACUUCAAGCAAAGGGUC [Fam1B.1 aminoacylation ribozyme variant] | 0.431 | 0.481 | 0.58 | 0.575 | 0.44 | 0.81
3 | CCACACUUCAAGCAAGCCGUC [Fam1B.1 aminoacylation ribozyme variant] | 0.664 | 0.921 | 0.963 | 1.1 | 0.835 | 0.837
4 | CCACACUUCAAGCAAUCAAUC [Fam1B.1 aminoacylation ribozyme variant] | 0.515 | 0.482 | 0.671 | 0.545 | 0.371 | 1.2
5 | CCACACUUCAAGCAAUCGUGC [Fam1B.1 aminoacylation ribozyme variant] | 0.46 | 0.425 | 0.768 | 0.546 | 0.55 | 0.571
6 | CCACACUUCAAGCAAUUGGAC [Fam1B.1 aminoacylation ribozyme variant] | 0.337 | 0.583 | 0.697 | 0.72 | 0.664 | 0.614
7 | CCACACUUCAAGCAAUUUGUC [Fam1B.1 aminoacylation ribozyme variant] | 0.663 | 0.578 | 0.844 | 0.66 | 0.597 | 0.856
8 | CCACACUUCAAGCACUCGGUU [Fam1B.1 aminoacylation ribozyme variant] | 1.41 | 1.37 | 1.99 | 1.39 | 1.35 | 1.15
9 | CCACACUUCAAGCAGUCCGUC [Fam1B.1 aminoacylation ribozyme variant] | 0.417 | 0.444 | 0.708 | 0.554 | 0.412 | 0.747
10 | CCACACUUCAAGCAGUCGGAC [Fam1B.1 aminoacylation ribozyme variant] | 0.712 | 0.964 | 1.2 | 1.02 | 1.08 | 0.46
11 | CCACACUUCAAGCAGUCGUUC [Fam1B.1 aminoacylation ribozyme variant] | 0.48 | 0.49 | 0.634 | 0.592 | 0.557 | 0.916
12 | CCACACUUCAAGGAAUCGGUA [Fam1B.1 aminoacylation ribozyme variant] | 0.902 | 1.23 | 1.18 | 1.26 | 1 | 0.499
13 | CCACACUUCAAGGAAUGGGUC [Fam1B.1 aminoacylation ribozyme variant] | 0.398 | 0.717 | 0.6 | 0.725 | 0.727 | 0.331
14 | CCACACUUCAAGUAAUUGGUC [Fam1B.1 aminoacylation ribozyme variant] | 0.863 | 0.606 | 0.664 | 0.643 | 0.713 | 0.948
15 | CCACACUUCAAUCAAUCGCUC [Fam1B.1 aminoacylation ribozyme variant] | 0.656 | 1.06 | 0.865 | 0.809 | 0.848 | 1.53
16 | CCACACUUCAGGCAAUAGGUC [Fam1B.1 aminoacylation ribozyme variant] | 0.621 | 0.606 | 0.742 | 0.624 | 0.605 | 0.689
17 | CCACACUUCAGGCAAUCUGUC [Fam1B.1 aminoacylation ribozyme variant] | 0.486 | 0.463 | 0.573 | 0.459 | 0.47 | 0.547
18 | CCACACUUCCAGCAAACGGUC [Fam1B.1 aminoacylation ribozyme variant] | 0.71 | 0.772 | 1.21 | 0.832 | 0.53 | 1.06
19 | CCACACUUCCAGCAAGCGGUC [Fam1B.1 aminoacylation ribozyme variant] | 0.807 | 0.971 | 1.37 | 1.3 | 1.03 | 1.19
20 | CCACACUUCCAGCAAUCUGUC [Fam1B.1 aminoacylation ribozyme variant] | 0.38 | 0.445 | 0.873 | 0.608 | 0.487 | 0.691
21 | CCACACUUCCAGCUAUCGGUC [Fam1B.1 aminoacylation ribozyme variant] | 0.989 | 1.22 | 1.63 | 1.38 | 1.01 | 0.712
22 | CCACACUUCGAGCACUCGGUC [Fam1B.1 aminoacylation ribozyme variant] | 1.44 | 1.32 | 1.89 | 1.49 | 1.06 | 0.74
23 | CCACACUUCUAGAAAUCGGUC [Fam1B.1 aminoacylation ribozyme variant] | 0.809 | 0.763 | 0.703 | 0.667 | 0.788 | 0.507
24 | CCACACUUCUAGCAACCGGUC [Fam1B.1 aminoacylation ribozyme variant] | 0.402 | 0.868 | 0.946 | 0.817 | 0.681 | 0.818
25 | CCACACUUCUAGCAAUCGGUA [Fam1B.1 aminoacylation ribozyme variant] | 0.539 | 0.845 | 0.744 | 0.879 | 0.706 | 0.623
26 | CCACACUUCUAGCUAUCGGUC [Fam1B.1 aminoacylation ribozyme variant] | 0.594 | 0.663 | 1.07 | 0.898 | 0.752 | 1.02

Row | Sequence | self-aminoacylation (biotinyl-Trp-oxazolone) | self-aminoacylation (biotinyl-Leu-oxazolone) | self-aminoacylation (biotinyl-Val-oxazolone) | self-aminoacylation (biotinyl-Ile-oxazolone) | self-aminoacylation (biotinyl-Met-oxazolone) | self-aminoacylation (biotinyl-Phe-oxazolone)
27 | CCACACUUGAAGCAAUCGGUC [Fam1B.1 aminoacylation ribozyme variant] | 0.805 | 0.735 | 0.926 | 0.836 | 0.782 | 0.778
28 | CCACACUUGAAGCACUCGGUC [Fam1B.1 aminoacylation ribozyme variant] | 1.51 | 1.12 | 1.63 | 1.29 | 0.82 | 1.05
29 | CCACACUUGAAGCAGUCGGUC [Fam1B.1 aminoacylation ribozyme variant] | 0.845 | 1.12 | 1.06 | 1.13 | 0.93 | 0.862
30 | CCACACUUGUAGCAAUCGGUC [Fam1B.1 aminoacylation ribozyme variant] | 0.659 | 1.08 | 1.19 | 1.06 | 1.03 | 0.817
31 | CCACACUUUAAGCAAUCUGUC [Fam1B.1 aminoacylation ribozyme variant] | 0.383 | 0.397 | 0.53 | 0.37 | 0.365 | 0.54
32 | CCACAGGUCAAGCAAUCGGUC [Fam1B.1 aminoacylation ribozyme variant] | 1.93 | 1.61 | 1.63 | 1.64 | 1.82 | 1.09
33 | CCACAGUUCAAGCAAUCGAUC [Fam1B.1 aminoacylation ribozyme variant] | 0.461 | 0.479 | 0.755 | 0.675 | 0.718 | 0.55
34 | CCACAGUUCGAGCAAUCGGUC [Fam1B.1 aminoacylation ribozyme variant] | 1.71 | 1.82 | 1.59 | 1.59 | 1.49 | 0.96
35 | CCACAGUUGAAGCAAUCGGUC [Fam1B.1 aminoacylation ribozyme variant] | 0.923 | 0.999 | 0.908 | 0.998 | 1 | 0.817
36 | CCACAUUUCAAGCAAUCUGUC [Fam1B.1 aminoacylation ribozyme variant] | 0.433 | 0.523 | 0.708 | 0.603 | 0.528 | 1.03
37 | CCACAUUUCAAGCAAUGGGUC [Fam1B.1 aminoacylation ribozyme variant] | 1.16 | 1.68 | 1.48 | 1.75 | 1.29 | 1.36
38 | CCACAUUUCAAGCCAUCGGUC [Fam1B.1 aminoacylation ribozyme variant] | 1.18 | 1.35 | 1.42 | 1.52 | 1.75 | 1.02
39 | CCACCCUUCAAGCAAUCGCUC [Fam1B.1 aminoacylation ribozyme variant] | 2.73 | 2.55 | 2.28 | 1.65 | 1.87 | 0.977
40 | CCACGCUUCAAGCAAUCAGUC [Fam1B.1 aminoacylation ribozyme variant] | 9.22 | 0.886 | 0.83 | 0.745 | 0.811 | 27.4
41 | CCACGCUUCAAGCAAUCGUUC [Fam1B.1 aminoacylation ribozyme variant] | 0.659 | 0.545 | 0.523 | 0.545 | 0.471 | 1.32
42 | CCACGCUUCAAGCAAUCUGUC [Fam1B.1 aminoacylation ribozyme variant] | 0.405 | 0.361 | 0.443 | 0.357 | 0.325 | 0.793
43 | CCACUCUUCAAACAAUCGGUC [Fam1B.1 aminoacylation ribozyme variant] | 41.8 | 2.04 | 1.3 | 1.23 | 1.44 | 78.3
44 | CCACUCUUCAAGCAAUCGGGC [Fam1B.1 aminoacylation ribozyme variant] | 1.69 | 2.21 | 1.87 | 1.9 | 1.72 | 1.38
45 | CCACUCUUGAAGCAAUCGGUC [Fam1B.1 aminoacylation ribozyme variant] | 0.852 | 0.97 | 1 | 0.986 | 0.973 | 1.01
46 | CCACUCUUUAAGCAAUCGGUC [Fam1B.1 aminoacylation ribozyme variant] | 0.723 | 0.894 | 1.09 | 0.915 | 0.816 | 0.92
47 | CCACUUCAAACAAUCGGUCAG [Fam1A.1 aminoacylation ribozyme variant] | 9.79 | 1.03 | 1.04 | 1.01 | 0.992 | 13.7
48 | CCACUUCAAACUAUCGGUCUG [Fam1A.1 aminoacylation ribozyme variant] | 1.39 | 1.16 | 1.46 | 1.44 | 1.39 | 0.866
49 | CCACUUCGAACAAUCGGUCUG [Fam1A.1 aminoacylation ribozyme variant] | 1.32 | 1.41 | 1.24 | 1.15 | 1.77 | 1.26
50 | CCAGAAUUCAAGCAAUCGGUC [Fam1B.1 aminoacylation ribozyme variant] | 1.81 | 2.3 | 1.6 | 1.91 | 1.65 | 2.26
51 | CCAGACUUAAAGCAAUCGGUC [Fam1B.1 aminoacylation ribozyme variant] | 0.831 | 1.1 | 1.07 | 1.06 | 0.997 | 0.854
